Assay results as given in PubChem BioAssay AID624297 (National Center for Advancing Translational Sciences (NCATS), 2012).
Hit rate of the full screen: of about 340,000 compounds, about 6,200 (1.8%) were called active. Inconclusive results, whose numbers are uncertain, are shown with a selection of clear calls. Calls follow the shape of the dose curve; as a rule, active = well fitted activation curve with a large enough effect; inconclusive = small, poorly fitted or top-dose-only effect; inactive = no such curve, though single readings can be large or run the other way. Potencies of inconclusive entries are doubtful fits and often do not repeat.

test: A quantitative high throughput screen for small molecules that induce DNA re-replication in SW480 colon adenocarcinoma cells.; also: nearly all actives have a fitted effect of over 55% in size; as to re-replication activation: % of control where 0% means no effect; settings: Hoechst DNA content imaging, 48 h; re-replication activation: at 46.1 µM (top of the series) unless noted
In short: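 Hoechst fluorescence of nuclei (405 nm excitation, 500-530 nm emission) measured by plate-scanning imager after 48 hr compound exposure at 37 C; re-replication scored as increased number of nuclei with elevated intensity.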
Potency is read from the fitted curve at half-maximal effect.

For `CC(=O)c1c(C)[nH]c(C(=O)CSc2nnc(-c3ccco3)n2Cc2ccccc2)c1C`, which “re-replication activation” value is on record?
The value was inactive: -2.31%.

Which “re-replication activation” value does the source give for `COc1ccc(S(=O)(=O)NCC(=O)Nc2ccc3c(c2)OCCO3)cc1OC` here?
Its value is inactive: 4.83%.

For `Cc1cc(C(N)=O)c2ccccc2n1`, which “re-replication activation” value is on record?
Its value is inactive: -1.69%.

With `CCCOc1ccc(C(=O)NCCC(=O)NCCCC(=O)O)cc1` as the compound, how does the Potency read?
The Potency was inconclusive: 0.731 µM [activator, partial curve, poor fit].

For `Cc1ccccc1OCC(=O)N/N=C/c1ccc([N+](=O)[O-])o1`, which Potency is on record?
Its Potency is active: 1.16 µM.

With `CCCc1nc2ccccc2c(=O)n1/N=C/c1ccccc1O` as the compound, how does the Potency read?
Its Potency is inconclusive: 20.6 µM [activator, partial curve, poor fit].

For `Cc1ccnc(SCc2ccc([N+](=O)[O-])cc2)n1`, which Potency is on record?
The Potency was inconclusive: 0.259 µM [activator, single point].

For `CCOC(=O)C(CO)NC(=O)C1(NC(C)=O)CCCC1` (configuration not stated), which “re-replication activation” value is on record?
Its value is inactive: -10.1%.

For `CCOC(=O)N1CCN(C/C(Cl)=C/c2ccccc2)CC1`, which “re-replication activation” value is on record?
Its value is inactive: 2.75%.

With `CN(c1ccccc1)S(=O)(=O)c1ccc(Cl)c(C(=O)Nc2ccc(-c3nc4ccccc4[nH]3)cc2)c1` as the compound, how does the Potency read?
The Potency was inconclusive: 20.6 µM [activator, single point].

Which “re-replication activation” value does the source give for `Cc1cc(C(=O)Nc2nnc(C3CC3)s2)c(C)s1` here?
Its value is inactive: -62.8%.

With `O=C(Oc1ccc(-c2nnco2)cc1)N(c1ccccc1)c1ccccc1` as the compound, how does the “re-replication activation” value read?
Its value is inactive: -12.4%.

With `COc1ccccc1N1CC(C(=O)Nc2ccc(N3CCOCC3)cc2)CC1=O` (configuration not stated) as the compound, how does the “re-replication activation” value read?
Its value is inactive: -1.37%.

Which Potency does the source give for `O=c1oc2ccccc2c(N2CCCCC2)c1[N+](=O)[O-]` here?
The Potency was inconclusive: 1.64 µM [activator, partial curve, poor fit].

Which Potency does the source give for `OC(COc1ccc(Cl)cc1)CN1CCN(c2cccc(Cl)c2)CC1` (configuration not stated) here?
Its Potency is inconclusive: 29.1 µM [activator, single point].

For `CCCCN1C=C(C(=O)OC)C(c2ccccc2Cl)C(C(=O)OC)=C1`, which Potency is on record?
The Potency was inconclusive: 13 µM [activator, single point].

With `O=C(c1cncc(Br)c1)N1CCN(S(=O)(=O)c2ccc3ccccc3c2)CC1` as the compound, how does the “re-replication activation” value read?
Its value is inactive: 1.86%.

With `COc1ccc(OC)c(S(=O)(=O)NC(N)=NCCc2ccccc2)c1` as the compound, how does the Potency read?
Its Potency is inconclusive: 6.51 µM [activator, single point].

For `CCOC(=O)c1sc(CS(=O)(=O)c2ccc(Cl)cc2)nc1C`, which Potency is on record?
Its Potency is inconclusive: 6.51 µM [activator, single point].

For `O=C(N/N=C/c1ccc(Br)s1)c1ccccn1`, which “re-replication activation” value is on record?
Its value is inactive: -1.41%.

For `COc1cccc(CNC(=O)CCC2CCCN(C(=O)c3cc(C4CC4)[nH]n3)C2)c1` (configuration not stated), which Potency is on record?
The Potency was inconclusive: 4.61 µM [activator, single point].

With `CCS/C(N)=N/N=C/c1cc(C)ccc1O` as the compound, how does the Potency read?
The Potency was inconclusive: 29.1 µM [activator, single point].

For `O=C(CN1C(=O)NC2(CCCCCC2)C1=O)N1CCN(c2ccc(F)cc2)CC1`, which “re-replication activation” value is on record?
The value was inactive: -4.07%.

For `COCCN(Cc1cc2cc(C)ccc2nc1Cl)C(=O)Nc1ccccc1C`, which “re-replication activation” value is on record?
Its value is inactive: -3.05%.

Which “re-replication activation” value does the source give for `CCOc1ccc(-n2c(-c3ccccc3)c[n+]3c2CCCCC3)cc1` here?
Its value is inactive: -14.4%.

Which “re-replication activation” value does the source give for `CCOc1ccc(S(=O)(=O)N2CCC(C(=O)NCc3cccnc3)CC2)cc1` here?
The value was inactive: 2.45%.

For `CN(C)S(=O)(=O)c1ccc(NC(=O)Cn2nc(-c3ccc4c(c3)OCCO4)ccc2=O)cc1`, which Potency is on record?
The Potency was active: 18.4 µM.

Which “re-replication activation” value does the source give for `CCc1cc(C(=O)Nc2ccc(OC)nc2)sc1C` here?
The value was inactive: 1.63%.

With `CCOC(=O)N1CCN(C2=C(NS(=O)(=O)c3ccc(C)cc3)C(=O)c3ccccc3C2=O)CC1` as the compound, how does the Potency read?
Its Potency is inconclusive: 16.4 µM [activator, partial curve, poor fit].

For `CCOC(=O)C(C)Sc1nc2c(c(-c3cccs3)c1C#N)CCC2` (configuration not stated), which “re-replication activation” value is on record?
Its value is inactive: 23.7%.

Which Potency does the source give for `Clc1ccc(-c2nnc(CCc3ccccc3)o2)c(Cl)c1` here?
Its Potency is inconclusive: 29.1 µM [activator, single point].

For `Cc1ccc(C)c(OCCn2cc(/C=C(\C#N)C(=O)NCc3cccs3)c3ccccc32)c1`, which Potency is on record?
The Potency was inconclusive: 25.9 µM [activator, single point].

Which “re-replication activation” value does the source give for `Cc1ccccc1NC(=O)Cc1nc(COC(=O)c2cc([N+](=O)[O-])ccc2NCCO)cs1` here?
The value was inactive: -7.04%.

With `Brc1ccc(-c2csc(NNC3=NCCCCC3)n2)cc1` as the compound, how does the “re-replication activation” value read?
The value was inactive: 2.96%.

With `CCCn1nc(-c2ccccc2)c2nc3ccccc3nc21` as the compound, how does the Potency read?
Its Potency is inconclusive: 13 µM [activator, partial curve, poor fit].

For `CC(=O)N1c2ccc(S(=O)(=O)N3CCCC(C(=O)Nc4cc(C)cc(C)c4)C3)cc2CC1C` (configuration not stated), which “re-replication activation” value is on record?
Its value is inactive: 2.76%.

With `CC(OC(=O)c1ccc(O)cc1)C(=O)Nc1ccc(Oc2ccccc2)cc1` (configuration not stated) as the compound, how does the Potency read?
The Potency was inconclusive: 29.1 µM [activator, single point].

With `CCOC(=O)c1c(N)sc2c(OCC)c(Br)ccc12` as the compound, how does the Potency read?
The Potency was active: 20.6 µM.

With `CCOc1cc(/C=N/O)ccc1OCc1ccc(C)cc1` as the compound, how does the Potency read?
Its Potency is inconclusive: 29.1 µM [activator, single point].

With `Cc1ccc2nc(N(CCCN(C)C)C(=O)c3cc4ccccc4oc3=O)sc2c1` as the compound, how does the “re-replication activation” value read?
The value was inactive: -0.673%.

Which Potency does the source give for `CC1(C2(O)CCCCC2)NCCc2ccccc21` (configuration not stated) here?
Its Potency is inconclusive: 32.6 µM [activator, single point].

With `COc1ccc(CCNS(=O)(=O)c2ccc(-c3ccc(=O)[nH]n3)o2)cc1OC` as the compound, how does the Potency read?
Its Potency is inconclusive: 10.3 µM [activator, partial curve].

With `CC1=C(C(=O)Nc2ccccc2)C2(CCCCC2)C(C#N)=C(SCC(N)=O)N1` as the compound, how does the Potency read?
The Potency was inconclusive: 16.4 µM [activator, single point].

For `CCn1c(SCC(=O)Nc2nc3ccc(OC)cc3s2)nnc1-c1ccoc1C`, which Potency is on record?
The Potency was inconclusive: 32.6 µM [activator, partial curve, poor fit].

With `Cn1ncc(Br)c1N1C(=O)CCC1=O` as the compound, how does the “re-replication activation” value read?
The value was inactive: 3.04%.

With `COc1ccc(-c2cc(C(=O)Nc3sc4c(c3C#N)CCCC4)c3ccccc3n2)cc1OC` as the compound, how does the Potency read?
The Potency was inconclusive: 25.9 µM [activator, partial curve, poor fit].

For `COc1ccc(C(CNC(=O)c2ccc(Cl)s2)N2CCOCC2)cc1` (configuration not stated), which Potency is on record?
Its Potency is inconclusive: 13 µM [activator, single point].

With `CN(CC(=O)Nc1c(Cl)cccc1Cl)C(=O)CNC(=O)C1CCCCC1` as the compound, how does the Potency read?
Its Potency is inconclusive: 20.6 µM [activator, single point].

Which Potency does the source give for `O=C(Nc1cccc(C(=O)N2CCCc3ccccc32)c1)c1ccccc1` here?
The Potency was inconclusive: 29.1 µM [activator, single point].

Which Potency does the source give for `COc1ccc(C(CNC(=O)c2cccc(S(=O)(=O)Nc3ccccc3OC)c2)N2CCCCC2)cc1` (configuration not stated) here?
The Potency was inconclusive: 29.1 µM [activator, partial curve, poor fit].

With `CC(C)(C)OC(=O)c1c(N)n(CCCN2CCCC2=O)c2nc3ccccc3nc12` as the compound, how does the “re-replication activation” value read?
Its value is inactive: -6.4%.

For `COc1ccc(-c2cc(C(=O)N3CC(C)CC(C)C3)c3ccccc3n2)cc1OC` (configuration not stated), which “re-replication activation” value is on record?
Its value is inactive: 15.5%.

For `O=C(NCCC1CCCCN1S(=O)(=O)c1ccc(F)cc1)C(=O)Nc1ccccc1F` (configuration not stated), which “re-replication activation” value is on record?
Its value is inactive: -256%.

For `Cc1cc(C(=O)O)c(CCCN)s1`, which Potency is on record?
The Potency was inconclusive: 23.1 µM [activator, single point].

With `N#C/C(=C\c1ccc(OCc2ccc(C(=O)O)cc2)cc1)C(=O)NCc1ccccc1` as the compound, how does the re-replication activation read?
The re-replication activation was inactive: -8.91% [at 1.84 µM].

Which Potency does the source give for `CCn1c(SCC(=O)NC2CCCC2)nnc1-c1ccccn1` here?
The Potency was inconclusive: 4.61 µM [activator, full curve, poor fit].

Which Potency does the source give for `COc1ccc(N2CCN(C(=O)C3CCC(Cn4c(=S)[nH]c5ccccc5c4=O)CC3)CC2)cc1` (configuration not stated) here?
The Potency was inconclusive: 5.17 µM [activator, partial curve].

With `CSc1nc(C)cc(OCC(=O)N/N=C/c2ccccc2O)n1` as the compound, how does the Potency read?
The Potency was inconclusive: 8.2 µM [activator, single point].

Which Potency does the source give for `O=C(C=Cc1ccccc1)c1cccs1` here?
The Potency was inconclusive: 29.1 µM [activator, single point].

With `CCN(c1ccccc1)S(=O)(=O)c1ccc(C(=O)Nc2nnc(CSC)o2)cc1` as the compound, how does the Potency read?
The Potency was inconclusive: 5.17 µM [activator, full curve].

For `O=C(NCCSc1ccc(Br)cc1)c1ccc2nc[nH]c2c1`, which Potency is on record?
The Potency was inconclusive: 2.31 µM [activator, full curve, poor fit].

With `O=C(NCc1ccccc1)C1=C[C@@H](c2ccc(Br)cc2)C[C@@H](OCCCCO)O1` as the compound, how does the Potency read?
The Potency was inconclusive: 18.4 µM [activator, partial curve, poor fit].

For `Cc1cccc2c1-c1sc(C(=O)Nc3ccccc3N3CCN(C)CC3)cc1CO2`, which Potency is on record?
The Potency was inconclusive: 18.4 µM [activator, single point].

Which Potency does the source give for `COC(=O)[C@@H]1C[C@@H]2CC[C@@H](O)C[C@@H]2N1Cc1ccc(OC)cc1` here?
The Potency was inconclusive: 1.16 µM [activator, single point].

With `Cc1ccc(S(=O)(=O)N2CCCCC2CCNC(=O)C(=O)NC2CCCC2)cc1` (configuration not stated) as the compound, how does the Potency read?
Its Potency is inconclusive: 18.4 µM [activator, single point].

Which “re-replication activation” value does the source give for `CCCCn1nc2cc(C(=O)NCc3ccccc3OC)ccc2c1OCC` here?
The value was inactive: -13.6%.

For `Cc1ccc(C(=O)CCC(=O)Nc2ccccc2C)cc1C`, which Potency is on record?
Its Potency is inconclusive: 0.58 µM [activator, full curve, poor fit].

Which Potency does the source give for `CCOC(=O)c1c(NC(=S)N2CCOCC2)sc2c1CCN(C(=O)OCC)C2` here?
Its Potency is inconclusive: 20.6 µM [activator, single point].

With `COc1cc2c(cc1NC(=O)C(Cl)Cl)-c1ccc(NC(=O)C(Cl)Cl)cc1C2` as the compound, how does the Potency read?
The Potency was inconclusive: 9.2 µM [activator, partial curve].

Which Potency does the source give for `CCc1nc2ccc(Cc3ccc4nc(CC)[nH]c4c3)cc2[nH]1` here?
Its Potency is active: 3.26 µM.

For `O=C(COC(=O)c1cccc(OC(F)F)c1)NC(=O)NC1CCCCC1`, which Potency is on record?
The Potency was inconclusive: 14.6 µM [activator, single point].

With `Cc1ccccc1C(=O)Nc1ccc(N2CCCCCC2)cc1` as the compound, how does the Potency read?
The Potency was inconclusive: 20.6 µM [activator, single point].
